From PubChem BioAssay AID1347076 (National Center for Advancing Translational Sciences (NCATS), 2019)
Hit rate of the full screen: of about 400,000 compounds, about 13,000 (3.2%) were called active. The inconclusive results got no clear call from the source; some entries with a clear call stand among them for comparison. Calls come from the whole dose curve; as a rule, active = well fitted cell-killing curve with a large enough effect; inconclusive = small, poorly fitted or top-dose-only effect, or effect the other way; inactive = flat fitted curve, though single readings scatter. Potencies of inconclusive entries are doubtful fits and often do not repeat.
% is set by controls: 0 for no effect and ±100 for the full control effect; potency is the fitted concentration of half-maximal effect.

Experiment: qHTS assay for MDR1-selective chemotherapeutics: Primary screen using the drug-selected MDR subline cells KB-V1; note: nearly all actives have a fitted effect of over 60% in size
Settings: KB-V1 MDR cells viability, CellTiter-Glo, 72 h; activity change, negative = cytotoxicity: at 46.1 µM (top of the series)
Summary of the method: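 KB-V1, DMEM (no phenol red) + 10% FBS; cpd pin-transferred, titration series; 72 h, 37 degrees C; CellTiter-Glo, luminescence. Data normalized, curve-fit.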
With C=CCNC(=O)N1CCC(c2nc3ccccc3s2)CC1 the Potency was inconclusive: 16.4 µM [cytotoxic, partial curve]. In the case of Cc1cc(-c2ccc(C)c(S(=O)(=O)NCc3ccc(Cl)cc3)c2)on1, the “activity change, negative = cytotoxicity” value is reported as inactive: -7.06%. With CCN(CC)S(=O)(=O)c1ccc(S(=O)(=O)Nc2ccc3c(c2)oc2ccccc23)cc1 the Potency was inconclusive: 23.1 µM [cytotoxic, single point]. In the case of N#Cc1ccccc1NC(=O)CSc1nnc(-c2ccccc2)n1-c1ccccc1, the Potency is reported as active: 14.6 µM. With COc1ccc(-c2c(=O)n(OCc3ccccc3[N+](=O)[O-])c3ccccc3[n+]2[O-])c(OC)c1 the “activity change, negative = cytotoxicity” value was inactive: 1.66%. With O=S(=O)(c1ccccc1)c1nc(-c2ccc(F)cc2)oc1N1CCOCC1 the Potency was inconclusive: 4.11 µM [cytotoxic, full curve]. In the case of Cc1cccc(COC(=O)C(Cc2ccccc2)NC(N)=O)c1 (stereo unspecified), the Potency is reported as inconclusive: 0.366 µM [rising, partial curve, poor fit]. For CC(C)c1ccc(OCC(=O)NC2CCCC2)cc1, the “activity change, negative = cytotoxicity” value was inactive: 8.46%. In the case of CN(c1ccccc1)S(=O)(=O)c1ccc(NC(=O)c2ccccc2)cc1, the Potency is reported as inconclusive: 29.1 µM [cytotoxic, single point]. With Cc1ccc(-n2c(SCC(=O)N3CC(=O)Nc4ccccc43)nc3ccccc3c2=O)cc1 the Potency was active: 18.4 µM. For CC(C)Cc1nc(SCC(=O)NCc2ccccc2)n[nH]1, the Potency was inconclusive: 20.6 µM [rising, partial curve, poor fit]. In the case of O=C(CCl)N1c2ccccc2Oc2ccc3ccccc3c21, the Potency is reported as inconclusive: 16.4 µM [cytotoxic, single point]. In the case of CN(C[C@@H](CC1CCCCC1)N(C[C@H](Cc1ccccc1)N(CCc1ccccc1)N=O)N=O)N=O, the “activity change, negative = cytotoxicity” value is reported as inactive: -9.42%. For COc1cc(O)c(C(=O)CC(=O)c2ccncc2)c(OC)c1, the “activity change, negative = cytotoxicity” value was inactive: 12.8%. For O=C(Nc1ccccc1F)N1CCCC1c1cccnc1 (stereo unspecified), the Potency was inconclusive: 1.84 µM [rising, partial curve, poor fit]. For O=C(c1ccccc1)c1ccc(N2CCN(C(=O)c3cccc(F)c3F)CC2)c(F)c1, the Potency was inconclusive: 29.1 µM [cytotoxic, single point]. In the case of CS(=O)(=O)N(Cc1ccccc1)c1ccc(C(=O)NCC2CCCO2)cc1 (stereo unspecified), the Potency is reported as inconclusive: 20.6 µM [cytotoxic, partial curve]. In the case of COc1ccc(C)cc1S(=O)(=O)N(CC(=O)Nc1ccc2c(c1)OCCO2)Cc1ccccc1, the “activity change, negative = cytotoxicity” value is reported as inactive: -12.4%. For O=[N+]([O-])c1cccc(S(=O)(=O)NCc2ccncc2)c1, the activity change, negative = cytotoxicity was inconclusive: -26.9%. In the case of O=C(Cc1cccs1)N(Cc1ccco1)C1(C(=O)NC2CCCCC2)CCCCC1, the Potency is reported as inconclusive: 9.2 µM [cytotoxic, partial curve]. In the case of CCCN(CC(=O)Nc1ccccc1OC)C(=O)CCC(=O)c1ccc(F)cc1, the Potency is reported as active: 10.3 µM. With NC(=O)C1CCN(C(=O)CSc2nc3ccccc3o2)CC1 the Potency was inconclusive: 29.1 µM [rising, single point]. For Cc1cccc(NC(=S)N/N=C/C(C)c2ccccc2)c1C (stereo unspecified), the “activity change, negative = cytotoxicity” value was inactive: -18.8%. With O=C(COC(=O)C12CC3CC(CC(C3)C1)C2)Nc1ccccc1F the “activity change, negative = cytotoxicity” value was inactive: 6.27%. In the case of COc1cccc(-c2nnc3n2N=C(c2cccc(Br)c2)CS3)c1, the Potency is reported as inconclusive: 0.731 µM [cytotoxic, full curve]. In the case of O=C(C1CCCCC1)N1C[C@H](n2cc(-c3ccc(F)cc3)nn2)[C@@H](O)C[C@@H]1c1ccccc1, the “activity change, negative = cytotoxicity” value is reported as inactive: 17.7%. In the case of COCC(=O)Nc1ccc2c(c1)OCC(=O)N2Cc1ccc(C)cc1, the “activity change, negative = cytotoxicity” value is reported as inactive: -2.04%. For CC(=O)Oc1ccc2c3c(c(=O)oc2c1C)CCCC3, the Potency was inconclusive: 32.6 µM [cytotoxic, single point]. With CC(=O)c1c(C)[nH]c(C(=O)OCC(=O)Nc2cc(Cl)ccc2[N+](=O)[O-])c1C the Potency was inconclusive: 32.6 µM [cytotoxic, single point]. With C=CCOc1ccc2oc(=O)cc(C)c2c1 the Potency was inconclusive: 20.6 µM [cytotoxic, single point]. For O=C(Nc1ccc(F)cc1)Nc1ccccc1N1CCCCC1, the Potency was inconclusive: 8.2 µM [cytotoxic, partial curve]. In the case of CN(NC(=O)c1ccccc1F)c1ncccc1[N+](=O)[O-], the Potency is reported as inconclusive: 23.1 µM [rising, single point]. With CC(=O)c1ccc(-c2nnc(CCC(=O)N(C)Cc3c(C)nc4ccccn34)o2)s1 the Potency was inconclusive: 8.2 µM [cytotoxic, partial curve, poor fit]. With Cc1cc(Oc2ccccc2F)nc(NCc2ccccc2)n1 the Potency was inconclusive: 32.6 µM [cytotoxic, single point]. With Cc1ccc(NS(=O)(=O)c2cccc(C(=O)N3CCCCCCC3)c2)cc1 the Potency was inconclusive: 41.1 µM [cytotoxic, partial curve, poor fit]. In the case of Cc1ccc(NC(=O)c2ccc3nc(Cc4ccccc4)oc3c2)cc1F, the Potency is reported as inconclusive: 25.9 µM [cytotoxic, single point]. In the case of COc1ccc(/C=C(\NC(=O)c2ccccc2)C(=O)OC[C@@H]2CCC[N+]3(C)CCCCC23)cc1OC (stereo partly specified), the “activity change, negative = cytotoxicity” value is reported as inactive: 15.9%. For COc1ccccc1C(=O)OCCc1ccccc1, the Potency was inconclusive: 0.731 µM [rising, full curve, poor fit]. For CSc1ccccc1NC(=O)CN1CCN(S(=O)(=O)c2ccccc2[N+](=O)[O-])CC1, the Potency was active: 3.66 µM. With Cc1ccc(S(=O)(=O)N2CCCC(C(=O)NCCCN3CCCCC3C)C2)cc1 (stereo unspecified) the “activity change, negative = cytotoxicity” value was inactive: -22.4%. With O=C(CNCc1ccc(Cl)cc1)Nc1ccc2c(c1)OCCO2 the Potency was inconclusive: 18.4 µM [cytotoxic, single point]. For Cc1csc2nc(-c3cccc(NC(=O)c4cccc(F)c4)c3)cn12, the Potency was inconclusive: 29.1 µM [cytotoxic, single point]. In the case of CC(C)Oc1ccc(CCc2n[nH]c(=S)n2Cc2ccccc2)cc1, the Potency is reported as active: 16.4 µM. For COc1ccc(-c2ccc(=O)n(Cc3c(F)cccc3Cl)n2)cc1, the “activity change, negative = cytotoxicity” value was inactive: -5.42%. In the case of Cc1cccc(-c2noc(CN(C(=O)c3ccc(C)c(C)c3)C(C)C)n2)c1, the Potency is reported as inconclusive: 25.9 µM [cytotoxic, single point]. For Cc1cc(C)c(NS(=O)(=O)c2ccc(NC(=O)CCC(=O)O)cc2)c(C)c1, the “activity change, negative = cytotoxicity” value was inactive: 10%.
